Experimental findings from the supplement of paper PMC10849652 are described below.

The chains behind the UniProt entries cited, without tags or fusion partners. Where a name states a change or a piece, a line headed by the entry shows the natural chain unless it says otherwise.
UniProt A0JNW5: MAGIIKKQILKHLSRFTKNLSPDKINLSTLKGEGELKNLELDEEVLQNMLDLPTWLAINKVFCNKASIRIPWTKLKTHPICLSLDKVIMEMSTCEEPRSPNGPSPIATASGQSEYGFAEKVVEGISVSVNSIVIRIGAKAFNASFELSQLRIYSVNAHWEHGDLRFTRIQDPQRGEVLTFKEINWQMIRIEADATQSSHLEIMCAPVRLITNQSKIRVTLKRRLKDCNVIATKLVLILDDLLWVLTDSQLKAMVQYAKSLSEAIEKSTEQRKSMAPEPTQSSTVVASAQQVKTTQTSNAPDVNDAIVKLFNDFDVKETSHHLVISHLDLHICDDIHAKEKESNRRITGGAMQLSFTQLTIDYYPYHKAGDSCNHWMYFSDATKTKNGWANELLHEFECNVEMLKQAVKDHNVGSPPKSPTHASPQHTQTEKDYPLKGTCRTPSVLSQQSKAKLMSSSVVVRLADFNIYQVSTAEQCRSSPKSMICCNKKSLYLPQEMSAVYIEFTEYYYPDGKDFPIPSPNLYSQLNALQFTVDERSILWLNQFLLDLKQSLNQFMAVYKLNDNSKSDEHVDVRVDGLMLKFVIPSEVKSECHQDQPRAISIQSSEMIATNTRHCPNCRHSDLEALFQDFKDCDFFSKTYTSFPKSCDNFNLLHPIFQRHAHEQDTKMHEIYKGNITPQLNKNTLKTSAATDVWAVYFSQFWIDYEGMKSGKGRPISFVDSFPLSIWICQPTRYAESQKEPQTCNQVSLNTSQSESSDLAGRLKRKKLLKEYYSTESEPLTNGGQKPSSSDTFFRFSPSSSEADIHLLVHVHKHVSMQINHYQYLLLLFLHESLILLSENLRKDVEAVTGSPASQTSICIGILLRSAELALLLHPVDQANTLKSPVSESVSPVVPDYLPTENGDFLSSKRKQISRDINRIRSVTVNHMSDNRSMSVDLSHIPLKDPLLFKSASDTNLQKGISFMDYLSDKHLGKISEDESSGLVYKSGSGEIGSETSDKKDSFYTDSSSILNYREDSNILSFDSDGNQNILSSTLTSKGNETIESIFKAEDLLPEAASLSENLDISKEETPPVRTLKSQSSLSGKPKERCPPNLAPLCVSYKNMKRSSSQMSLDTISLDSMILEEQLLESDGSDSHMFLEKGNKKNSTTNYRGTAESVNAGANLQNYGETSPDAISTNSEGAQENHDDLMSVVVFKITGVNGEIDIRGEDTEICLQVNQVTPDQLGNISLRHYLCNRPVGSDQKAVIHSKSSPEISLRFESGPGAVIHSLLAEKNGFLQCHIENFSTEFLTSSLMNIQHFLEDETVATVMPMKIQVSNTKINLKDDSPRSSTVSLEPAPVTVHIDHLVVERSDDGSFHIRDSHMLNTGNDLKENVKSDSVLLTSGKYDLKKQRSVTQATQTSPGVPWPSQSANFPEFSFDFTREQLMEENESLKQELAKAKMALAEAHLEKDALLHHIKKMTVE
UniProt P11172: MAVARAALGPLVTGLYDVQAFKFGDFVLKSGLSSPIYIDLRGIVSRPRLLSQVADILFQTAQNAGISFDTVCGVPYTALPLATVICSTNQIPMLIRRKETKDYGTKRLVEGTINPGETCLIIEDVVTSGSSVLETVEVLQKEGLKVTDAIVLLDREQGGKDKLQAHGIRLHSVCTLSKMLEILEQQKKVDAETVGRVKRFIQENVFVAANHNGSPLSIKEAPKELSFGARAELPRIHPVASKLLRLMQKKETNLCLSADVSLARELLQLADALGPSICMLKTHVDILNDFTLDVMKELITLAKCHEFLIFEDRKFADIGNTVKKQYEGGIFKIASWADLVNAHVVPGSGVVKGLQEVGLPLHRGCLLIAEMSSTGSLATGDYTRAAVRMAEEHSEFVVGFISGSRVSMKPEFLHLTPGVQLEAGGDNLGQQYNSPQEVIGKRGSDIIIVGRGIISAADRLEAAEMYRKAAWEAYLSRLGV
UniProt Q9P2Y5: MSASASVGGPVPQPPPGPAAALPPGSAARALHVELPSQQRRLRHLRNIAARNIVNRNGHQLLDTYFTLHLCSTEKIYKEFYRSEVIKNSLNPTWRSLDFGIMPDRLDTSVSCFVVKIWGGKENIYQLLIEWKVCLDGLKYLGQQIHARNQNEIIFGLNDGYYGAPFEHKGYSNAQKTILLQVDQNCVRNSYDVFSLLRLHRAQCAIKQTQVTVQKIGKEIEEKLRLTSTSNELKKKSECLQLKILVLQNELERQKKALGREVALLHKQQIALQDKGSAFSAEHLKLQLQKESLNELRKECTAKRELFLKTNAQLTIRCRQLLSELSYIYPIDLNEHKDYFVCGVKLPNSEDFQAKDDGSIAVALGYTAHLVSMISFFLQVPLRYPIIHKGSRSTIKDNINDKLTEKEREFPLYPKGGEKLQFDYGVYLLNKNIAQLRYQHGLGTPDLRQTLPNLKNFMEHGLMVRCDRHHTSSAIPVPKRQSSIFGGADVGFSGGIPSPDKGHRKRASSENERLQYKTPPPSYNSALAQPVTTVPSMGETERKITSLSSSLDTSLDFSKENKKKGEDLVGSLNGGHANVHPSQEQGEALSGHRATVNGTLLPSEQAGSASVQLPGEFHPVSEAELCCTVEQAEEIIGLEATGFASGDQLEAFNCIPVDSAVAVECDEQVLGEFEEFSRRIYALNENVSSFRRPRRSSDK
UniProt P51809, whole entry, looked up: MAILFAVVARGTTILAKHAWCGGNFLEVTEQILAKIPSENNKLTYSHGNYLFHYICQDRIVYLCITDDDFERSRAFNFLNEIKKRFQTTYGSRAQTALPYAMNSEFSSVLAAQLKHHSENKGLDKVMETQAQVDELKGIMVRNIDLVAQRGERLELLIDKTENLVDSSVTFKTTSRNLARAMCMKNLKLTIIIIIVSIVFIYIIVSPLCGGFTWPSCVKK
UniProt P55072, whole entry, looked up: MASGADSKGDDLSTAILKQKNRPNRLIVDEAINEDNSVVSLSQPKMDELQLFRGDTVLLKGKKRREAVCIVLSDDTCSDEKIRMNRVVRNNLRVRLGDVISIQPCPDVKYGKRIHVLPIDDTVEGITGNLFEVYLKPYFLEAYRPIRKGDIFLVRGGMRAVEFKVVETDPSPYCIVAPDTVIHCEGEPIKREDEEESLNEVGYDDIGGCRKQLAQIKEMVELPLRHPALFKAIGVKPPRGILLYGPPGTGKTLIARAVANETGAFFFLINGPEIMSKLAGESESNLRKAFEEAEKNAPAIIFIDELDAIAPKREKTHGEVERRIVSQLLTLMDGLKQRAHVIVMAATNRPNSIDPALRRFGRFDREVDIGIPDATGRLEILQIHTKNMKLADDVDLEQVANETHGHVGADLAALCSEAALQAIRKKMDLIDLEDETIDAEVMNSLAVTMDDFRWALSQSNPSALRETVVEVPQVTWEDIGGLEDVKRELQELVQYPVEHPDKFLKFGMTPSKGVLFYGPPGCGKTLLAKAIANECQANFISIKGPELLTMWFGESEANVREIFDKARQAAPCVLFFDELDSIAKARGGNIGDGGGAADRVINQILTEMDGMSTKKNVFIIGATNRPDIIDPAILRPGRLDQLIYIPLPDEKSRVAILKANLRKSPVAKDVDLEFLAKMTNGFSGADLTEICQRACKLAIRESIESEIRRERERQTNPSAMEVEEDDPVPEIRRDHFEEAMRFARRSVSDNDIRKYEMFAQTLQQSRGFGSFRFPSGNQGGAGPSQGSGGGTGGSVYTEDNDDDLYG
UniProt Q9Y3C8: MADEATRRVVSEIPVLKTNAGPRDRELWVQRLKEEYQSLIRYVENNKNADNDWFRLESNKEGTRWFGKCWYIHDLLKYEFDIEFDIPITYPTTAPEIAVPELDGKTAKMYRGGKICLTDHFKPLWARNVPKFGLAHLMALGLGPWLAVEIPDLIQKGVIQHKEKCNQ
UniProt O75379: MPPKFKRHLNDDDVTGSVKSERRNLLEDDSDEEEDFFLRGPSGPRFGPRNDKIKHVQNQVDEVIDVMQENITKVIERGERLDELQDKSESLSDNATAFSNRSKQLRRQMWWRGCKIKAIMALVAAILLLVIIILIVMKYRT
UniProt Q08AM6: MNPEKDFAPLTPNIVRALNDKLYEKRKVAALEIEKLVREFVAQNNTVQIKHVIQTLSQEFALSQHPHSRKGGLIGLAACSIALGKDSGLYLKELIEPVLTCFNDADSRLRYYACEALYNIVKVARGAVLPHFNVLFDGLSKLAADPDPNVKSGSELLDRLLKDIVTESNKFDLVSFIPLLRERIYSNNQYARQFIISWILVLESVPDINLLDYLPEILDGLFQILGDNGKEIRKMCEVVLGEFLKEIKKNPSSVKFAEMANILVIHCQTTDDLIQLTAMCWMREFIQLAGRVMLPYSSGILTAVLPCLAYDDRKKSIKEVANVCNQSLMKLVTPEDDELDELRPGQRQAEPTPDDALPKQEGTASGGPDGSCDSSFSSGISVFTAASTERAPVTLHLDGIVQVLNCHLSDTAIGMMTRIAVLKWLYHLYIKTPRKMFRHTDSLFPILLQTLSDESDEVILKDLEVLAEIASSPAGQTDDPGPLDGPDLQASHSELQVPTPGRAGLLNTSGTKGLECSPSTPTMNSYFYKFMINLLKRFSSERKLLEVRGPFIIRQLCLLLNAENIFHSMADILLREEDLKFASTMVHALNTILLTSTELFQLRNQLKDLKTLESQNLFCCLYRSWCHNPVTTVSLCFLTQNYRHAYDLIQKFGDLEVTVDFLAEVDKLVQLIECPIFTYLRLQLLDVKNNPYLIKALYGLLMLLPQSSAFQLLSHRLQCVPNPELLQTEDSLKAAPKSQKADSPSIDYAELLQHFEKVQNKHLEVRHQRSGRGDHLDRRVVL
UniProt Q9Y5T5, whole entry, looked up: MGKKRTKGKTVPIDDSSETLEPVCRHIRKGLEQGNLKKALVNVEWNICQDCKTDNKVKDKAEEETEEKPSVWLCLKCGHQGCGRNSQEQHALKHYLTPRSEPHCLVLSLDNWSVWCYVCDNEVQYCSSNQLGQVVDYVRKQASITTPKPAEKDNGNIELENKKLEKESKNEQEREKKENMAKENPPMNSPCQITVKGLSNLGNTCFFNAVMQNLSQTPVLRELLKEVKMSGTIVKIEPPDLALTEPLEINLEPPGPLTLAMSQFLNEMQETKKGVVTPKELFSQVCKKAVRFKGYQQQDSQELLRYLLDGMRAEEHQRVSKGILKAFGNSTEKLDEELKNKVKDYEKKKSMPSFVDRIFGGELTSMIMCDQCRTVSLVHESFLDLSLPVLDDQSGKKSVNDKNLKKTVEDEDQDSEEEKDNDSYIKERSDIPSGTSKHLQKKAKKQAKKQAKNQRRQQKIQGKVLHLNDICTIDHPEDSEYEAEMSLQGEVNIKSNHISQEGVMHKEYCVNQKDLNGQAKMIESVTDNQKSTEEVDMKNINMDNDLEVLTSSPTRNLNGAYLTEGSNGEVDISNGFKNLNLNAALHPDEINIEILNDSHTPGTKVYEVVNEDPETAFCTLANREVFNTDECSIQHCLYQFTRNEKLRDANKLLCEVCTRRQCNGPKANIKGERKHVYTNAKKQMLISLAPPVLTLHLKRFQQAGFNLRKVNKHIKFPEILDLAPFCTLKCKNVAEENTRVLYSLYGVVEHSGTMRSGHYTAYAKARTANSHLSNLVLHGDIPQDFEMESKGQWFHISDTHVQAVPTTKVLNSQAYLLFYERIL

The list shows a part of the results.

Compound in this assay: C1=CC(=C(C=C1Cl)C2=NC3=NC=CN=C3C(=N2)NC4=CC=NC=C4)F
Put plainly: log2 fold change, soluble protein after heating vs DMSO (PISA); higher = thermal stabilisation; K562 cells, 10 uM, 30 min; active = over 0.2 and 3.5 SD of the protein, either way, in both replicates (recomputed). In short, it runs like this:
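K562 cells at 2×10^6 cells/mL were treated for 30 min with 10 μM compound, and aliquots were heated for 3 min over 48°C-58°C before pooling. Extraction used PBS with 0.5% NP-40 at 4°C, and soluble protein was the supernatant after 21,000xg for 90 min, measured by TMTpro 16plex LC-MS/MS with channel sums equalised. Thermal stability values, relative to control samples and from duplicates, are log2 fold changes.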
For USF1 (UniProt P22415), the log2 fold change was inactive: -0.151.
To UHRF1BP1L (UniProt A0JNW5) belongs inactive: 0.016; to VBP1 (UniProt P61758), inactive: 0.025; to UTP15 (UniProt Q8TED0), inactive: -0.519.
UPRT (UniProt Q96BW1): the log2 fold change was inactive: 0.
Next, UGP2 (UniProt Q16851): inactive: 0.057.
Next, UGT8 (UniProt Q16880): inactive: -0.057; UMPS (UniProt P11172): inactive: 0.068.
Next, UPF3B (UniProt Q9BZI7): active: -0.703; UVRAG (UniProt Q9P2Y5): inactive: -0.046; VAMP7 (UniProt P51809): inactive: 0.077.
As to UQCRC2 (UniProt P22695), the log2 fold change is inactive: 0.065.
Next, USP20 (UniProt Q9Y2K6): inactive: 0.012.
Next, VCP (UniProt P55072): inactive: 0.037; URI1 isoform 4 (UniProt O94763): inactive: 0.164.
Next, USO1 isoform 2 (UniProt O60763): inactive: 0.051; UFC1 (UniProt Q9Y3C8): inactive: 0.052; VAMP4 (UniProt O75379): inactive: 0.
Take UBL4A (UniProt P11441): the log2 fold change was inactive: 0.044.
Next, UFSP2 (UniProt Q9NUQ7): inactive: -0.028; VAC14 (UniProt Q08AM6): inactive: 0.033; USP25 isoform 3 (UniProt Q9UHP3): inactive: 0.02.
Next, USP3 (UniProt Q9Y6I4): inactive: 0.121; USP16 (UniProt Q9Y5T5): inactive: -0.352.
